Experimental data published in US20230331814A1.
No constants are given. Whether binding was seen depends on the method and setting. Some results given as binding are weak or reduced against the parent protein; the word gives no strength.

The chains behind the UniProt entries cited, without tags or fusion partners. Residues count along the entry.
UniProt P01127, residues 82-190: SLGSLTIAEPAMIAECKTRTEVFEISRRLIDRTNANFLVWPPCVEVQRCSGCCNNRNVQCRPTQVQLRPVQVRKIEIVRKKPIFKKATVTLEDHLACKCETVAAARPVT
UniProt P01137, residues 279-390: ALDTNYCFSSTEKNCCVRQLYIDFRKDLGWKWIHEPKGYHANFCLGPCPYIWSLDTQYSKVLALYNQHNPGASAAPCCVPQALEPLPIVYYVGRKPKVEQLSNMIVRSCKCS

Key:
[1] = target: platelet-derived growth factor-BB (UniProt P01127); assay: surface plasmon resonance (Biacore T200)
[2] = target: Transforming Growth Factor-Beta1 (UniProt P01137); assay: surface plasmon resonance (Biacore T200)

Row | binding [1] | binding [2] | Binder
1 | binds | binds | HIGKYGLRWRPKGSV (cyclic: N terminus amino acid bound to the C terminus amino acid) [cNP8]
2 | binds | binds | HISKYILRWRPKNSV [P46]
3 | binds | binds | PSHISKYILRWRPK [P12]
